Measurements reported in PubChem BioAssay AID504793 (Drosophila RNAi Screening Center, 2011)
The deposit covers about 23,000 reagents; shown is a random part of those that have a named target and a result. In the full data, 62 (0.27%) are marked active. 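Calls come from follow-up tests whose scores are not deposited, so confirmed genes may have low counts here; counts are not normalised per plate.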 Raw values vary from plate to plate and are shown uncorrected. Unmarked entries are inactive. A plus sign joins genes that one reagent is predicted to hit. No sequences are given here.

- Test: 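Knock-downs allowing continued mitosis even though DNA is damaged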 (primary screen)
- System: Drosophila S2R+ cells
- Knock-down reagent: long dsRNA against Drosophila genes, about 0.25 µg dsRNA per well
- Timing: 4 days of dsRNA, then 4 hours of drug before read-out
- Treatment: doxorubicin 0.5 µM for 4 hours to cause double-strand breaks, in cells also given a low, harmless dose of dsRNA against nbs to sensitise the assay
- Read-out: 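Mitotic index as the number of phospho-histone H3-positive cells in each well following doxorubicin, given as raw counts without normalisation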
- Direction: mitotic cells: higher = more cells in mitosis, weaker G2 arrest
- Active means: 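a call needs confirmation in secondary tests, with other dsRNAs and a check of mitotic timing without damage, not just a high primary count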
- Calls: active = confirmed in follow-up tests; inactive = not confirmed

target | amplicon | mitotic cells, replicate 1 | mitotic cells, replicate 2
kumpel | DRSC14883 | 6 | –
kumpel | DRSC16459 | 8 | –
kumpel | DRSC16460 | 9 | –
kumpel | DRSC16461 | 8 | –
kumpel | DRSC16462 | 5 | –
kumpel | DRSC16463 | 8 | –
kumpel | DRSC25593 | 8 | –
kumpel | DRSC27664 | 6 | –
CG15553 | DRSC15091 | 10 | –
Paf-AHalpha | DRSC20267 | 13 | –
Odc2 | DRSC07483 | 5 | –
Odc2 | DRSC26384 | 4 | –
SRPK | DRSC07090 | 5 | –
SRPK | DRSC28162 | 6 | –
CG14877 | DRSC15001 | 2 | –
CG14877 | DRSC30033 | 3 | –
CG31816 | DRSC01547 | 3 | –
CG7627 | DRSC03065 | 2 | –
CG7627 | DRSC24481 | 7 | –
Ptpa | DRSC00776 | 5 | –
Ptpa | DRSC28747 | 4 | –
strat | DRSC03069 | 8 | –
LeuRS | DRSC00581 | 4 | –
mei-38 | DRSC18564 | 9 | –
Clp | DRSC00746 | 1 | –
Sec13 | DRSC14144 | 7 | –
Torsin | DRSC18570 | 13 | 10
CG13192 | DRSC06317 | 8 | –
CG11842 | DRSC14400 | 11 | –
CG11842 | DRSC24924 | 9 | –
FucTC | DRSC20966 | 13 | –
FucTC | DRSC29686 | 13 | –
Or45a | DRSC07487 | 7 | –
Or45a | DRSC27527 | 5 | –
Set8 | DRSC15473 | 13 | –
Set8 | DRSC27118 | 8 | –
Cyp6a2 | DRSC05014 | 7 | –
Cyp6a2 | DRSC24091 | 2 | –
CG11693 | DRSC14353 | 2 | –
CG11693 | DRSC28503 | 9 | –
Xxylt | DRSC04107 | 9 | –
pip | DRSC11382 | 5 | –
pip | DRSC28579 | 8 | –
PPP4R2r | DRSC18695 | 11 | –
PPP4R2r | DRSC21503 | 5 | –
PPP4R2r | DRSC27825 | 7 | –
Sc2 | DRSC08162 | 5 | –
Sc2 | DRSC26153 | 5 | –
CG13244 | DRSC21642 | 12 | –
CR31846 (retired record) | DRSC22272 | 9 | –
CG7201 | DRSC10786 | 10 | –
eIF3h | DRSC01995 | 5 | –
eIF3h | DRSC27567 | 9 | –
Rpt3 | DRSC20283 | 80 | –
Rpt3 | DRSC23412 | 65 | –
fax | DRSC11345 | 16 | –
fax | DRSC27842 | 6 | –
Cht7 | DRSC08538 | 3 | –
Cht7 | DRSC21783 | 4 | –
Mrgn1 | DRSC20223 | 13 | –
CG13337 | DRSC06371 | 3 | –
CG13337 | DRSC28309 | 4 | –
sob | DRSC00838 | 3 | –
sob | DRSC25075 | 3 | –
Mf | DRSC16120 | 6 | –
rictor | DRSC20071 | 3 | –
Rpt4R | DRSC10791 | 3 | –
Rpt4R | DRSC25928 | 4 | –
CG16903 | DRSC18561 | 6 | –
CARPB | DRSC18437 | 7 | –
CARPB | DRSC18438 | 15 | –
EMC5 | DRSC02469 | 3 | –
CG31751 | DRSC02464 | 6 | –
CG31751 | DRSC02465 | 6 | –
DCTN4-p62 | DRSC06101 | 12 | –
DCTN4-p62 | DRSC27900 | 10 | –
zfh1 | DRSC17098 | 8 | –
zfh1 | DRSC26931 | 6 | –
rn | DRSC12543 | 9 | –
rn | DRSC12544 | 12 | –
rn | DRSC12546 | 7 | –
rn | DRSC22291 | 17 | –
rn | DRSC25073 | 7 | –
rn | DRSC27211 | 6 | –
dcma | DRSC00246 | 7 | –
dcma | DRSC00338 | 5 | –
CG15914 | DRSC19739 | 4 | –
RhoGAP54D | DRSC06990 | 6 | –
RhoGAP54D | DRSC26684 | 3 | –
CG12849 | DRSC04129 | 7 | –
bond | DRSC16135 | 5 | –
bond | DRSC23724 | 11 | –
Capa | DRSC15058 | 2 | –
sav | DRSC14681 | 6 | –
sav | DRSC14682 | 1 | –
CG14950 (retired record) | DRSC08409 | 5 | –
Ncc69 | DRSC10412 | 2 | –
Ncc69 | DRSC10413 | 8 | –
Ncc69 | DRSC23572 | 6 | –
CG33303 | DRSC02848 | 5 | –
Shmt | DRSC18264 | 11 | –
Cyp6d5 | DRSC16634 | 7 | –
Cyp6d5 | DRSC29717 | 13 | –
fos28F (retired record) | DRSC03391 | 14 | –
CG3520 | DRSC04383 | 3 | –
CG13445 | DRSC09992 | 7 | –
CG13445 | DRSC25076 | 5 | –
BaraC | DRSC03885 | 5 | –
dpr6 | DRSC09005 | 8 | –
dpr6 | DRSC10162 | 2 | –
dpr6 | DRSC10163 | 16 | –
Tep5Psi | DRSC02183 | 5 | –
Tep5Psi | DRSC02184 | 3 | –
CG15741 | DRSC19707 | 14 | –
CG15741 | DRSC24220 | 6 | –
Top2 | DRSC03459 | 70 (active) | –
CG9896 | DRSC03962 | 5 | –
CG9896 | DRSC04594 | 4 | –
sgll | DRSC15442 | 7 | –
CG33263 | DRSC10108 | 4 | –
Dph4 | DRSC12318 | 5 | –
alpha-Est2 | DRSC12614 | 4 | –
CG33474 | DRSC05218 | 9 | –
RpL3 | DRSC16834 | 10 | –
CG5704 | DRSC08572 | 5 | –
brm | DRSC11330 | 1 | –
brm | DRSC26226 | 18 | –
rdgBbeta | DRSC07672 | 4 | –
scpr-A + scpr-C | DRSC15737 | 5 | –
CG17292 | DRSC02594 | 2 | –
CG17292 | DRSC27746 | 2 | –
eIF4H2 | DRSC14582 | 9 | –
eIF4H2 | DRSC27363 | 4 | –
wda | DRSC15579 | 11 | –
wda | DRSC22351 | 10 | –
Jon65Aii | DRSC10665 | 4 | –
crim | DRSC10573 | 10 | –
CG31278 | DRSC16051 | 5 | –
CG13494 | DRSC04139 | 3 | –
CG13494 | DRSC26588 | 6 | –
